# Measured data: PubChem BioAssay AID743454 (Peter MacCallum Cancer Centre, 2014)
# Assay: 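Search for knock-downs that restore vorinostat killing in resistant colon cancer cells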 (primary screen)
# System: human HCT116-VR colon cancer cells, selected for vorinostat resistance
# Reagent: siRNA pool against human genes, 40 nM siRNA pool
# Timing: vorinostat for 24 h, read-out about 72 h after transfection
# Challenge: vorinostat at 2.5 µM final
# Measurement: 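Cell viability by CellTiter-Fluor and caspase 3/7 activity by luminescence, each scaled to mock wells per plate, duplicates averaged, then robust z-scored over all plates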
# Direction: viability robust z-score: higher = more viable cells than screen typical; caspase robust z-score: higher = more caspase 3/7 activity than screen typical
# Call rule: 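Hits are knock-downs in viability class RV1/RV2 or caspase class CA1/CA2, excluding ones that killed cells in the no-drug cell-count arm; hits then retested with single siRNAs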
# Here is a random part of about 18,000 deposited reagents. Of all reagents, 450 (2.5%) are marked active. 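Single biological run; no consistent viability z cut-off exists, so the class columns, not z-scores, define the calls.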
gene,viability hit class,caspase hit class,viability robust z-score,caspase robust z-score,outcome
PRAMEF9 (PRAME family member 9),no change,no change,0.97,2.28,inactive
"SPNS1 (SPNS lysolipid transporter 1, lysophospholipid)",no change,no change,-0.01,4.13,inactive
PTK2B (protein tyrosine kinase 2 beta),no change,no change,0.25,0,inactive
DCAF6 (DDB1 and CUL4 associated factor 6),no change,no change,0.36,-0.38,inactive
BRI3 (brain protein I3),no change,no change,-0.3,2.93,inactive
ERG (ETS transcription factor ERG),no change,no change,1.38,1.17,inactive
ANKRD23 (ankyrin repeat domain 23),no change,no change,-2.25,0.3,inactive
SERAC1 (serine active site containing 1),no change,no change,-0.37,-0.6,inactive
KMT2B (lysine methyltransferase 2B),no change,no change,-0.94,0.65,inactive
SDCBP2 (syndecan binding protein 2),no change,no change,-2.29,-0.91,inactive
CA4 (carbonic anhydrase 4),no change,no change,-1.07,0.44,inactive
COX7A1 (cytochrome c oxidase subunit 7A1),no change,no change,0.01,2.02,inactive
HSPA9 (heat shock protein family A (Hsp70) member 9),no change,no change,-2.7,0.12,inactive
"ASH2L (ASH2 like, histone lysine methyltransferase complex subunit)",no change,CA1 (caspase activation),-1.15,7.12,active
FAM120A (family with sequence similarity 120 member A),no change,no change,-0.34,-0.2,inactive
MTCH1,no change,no change,0.12,-0.42,inactive
MPP1 (MAGUK p55 scaffold protein 1),no change,no change,-1.38,-0.94,inactive
"F2 (coagulation factor II, thrombin)",no change,no change,0.99,-0.53,inactive
OSER1 (oxidative stress responsive serine rich 1),no change,no change,0.32,-0.5,inactive
PDE8A (phosphodiesterase 8A),no change,no change,0.53,1.77,inactive
ZNF225 (zinc finger protein 225),no change,no change,0.36,1.27,inactive
MMP27 (matrix metallopeptidase 27),no change,no change,0.03,-0.12,inactive
ZACN (zinc activated ion channel),no change,no change,-0.09,-0.31,inactive
MINAR1 (membrane integral NOTCH2 associated receptor 1),no change,no change,-0.82,0.27,inactive
CLEC12B (C-type lectin domain family 12 member B),no change,no change,1.15,-0.03,inactive
PGGT1B (protein geranylgeranyltransferase type I subunit beta),no change,no change,0.26,-0.1,inactive
PPP2R2B (protein phosphatase 2 regulatory subunit Bbeta),no change,no change,0.24,-0.54,inactive
RBM38 (RNA binding motif protein 38),no change,no change,-0.4,0.68,inactive
APOL1 (apolipoprotein L1),no change,no change,-0.22,4.34,inactive
VWA5A (von Willebrand factor A domain containing 5A),no change,no change,0.43,-0.16,inactive
ZNF691 (zinc finger protein 691),no change,no change,1.33,1.52,inactive
RBMS3 (RNA binding motif single stranded interacting protein 3),no change,no change,-0.75,-0.4,inactive
SMCO3 (single-pass membrane protein with coiled-coil domains 3),no change,no change,0.12,0.88,inactive
JAG2 (jagged canonical Notch ligand 2),no change,no change,-0.94,0.38,inactive
IL13RA2 (interleukin 13 receptor subunit alpha 2),no change,no change,-1.06,1.82,inactive
TMEM143 (transmembrane protein 143),no change,no change,0.88,-0.37,inactive
FAM204A (family with sequence similarity 204 member A),no change,no change,-0.61,0.28,inactive
CT47A11 (cancer/testis antigen family 47 member A11),no change,no change,0.54,-0.36,inactive
GSDMC (gasdermin C),no change,no change,-0.84,-0.8,inactive
